The values below come from article PMC9841400.

The chains behind the UniProt entries cited, without tags or fusion partners.
UniProt Q15648: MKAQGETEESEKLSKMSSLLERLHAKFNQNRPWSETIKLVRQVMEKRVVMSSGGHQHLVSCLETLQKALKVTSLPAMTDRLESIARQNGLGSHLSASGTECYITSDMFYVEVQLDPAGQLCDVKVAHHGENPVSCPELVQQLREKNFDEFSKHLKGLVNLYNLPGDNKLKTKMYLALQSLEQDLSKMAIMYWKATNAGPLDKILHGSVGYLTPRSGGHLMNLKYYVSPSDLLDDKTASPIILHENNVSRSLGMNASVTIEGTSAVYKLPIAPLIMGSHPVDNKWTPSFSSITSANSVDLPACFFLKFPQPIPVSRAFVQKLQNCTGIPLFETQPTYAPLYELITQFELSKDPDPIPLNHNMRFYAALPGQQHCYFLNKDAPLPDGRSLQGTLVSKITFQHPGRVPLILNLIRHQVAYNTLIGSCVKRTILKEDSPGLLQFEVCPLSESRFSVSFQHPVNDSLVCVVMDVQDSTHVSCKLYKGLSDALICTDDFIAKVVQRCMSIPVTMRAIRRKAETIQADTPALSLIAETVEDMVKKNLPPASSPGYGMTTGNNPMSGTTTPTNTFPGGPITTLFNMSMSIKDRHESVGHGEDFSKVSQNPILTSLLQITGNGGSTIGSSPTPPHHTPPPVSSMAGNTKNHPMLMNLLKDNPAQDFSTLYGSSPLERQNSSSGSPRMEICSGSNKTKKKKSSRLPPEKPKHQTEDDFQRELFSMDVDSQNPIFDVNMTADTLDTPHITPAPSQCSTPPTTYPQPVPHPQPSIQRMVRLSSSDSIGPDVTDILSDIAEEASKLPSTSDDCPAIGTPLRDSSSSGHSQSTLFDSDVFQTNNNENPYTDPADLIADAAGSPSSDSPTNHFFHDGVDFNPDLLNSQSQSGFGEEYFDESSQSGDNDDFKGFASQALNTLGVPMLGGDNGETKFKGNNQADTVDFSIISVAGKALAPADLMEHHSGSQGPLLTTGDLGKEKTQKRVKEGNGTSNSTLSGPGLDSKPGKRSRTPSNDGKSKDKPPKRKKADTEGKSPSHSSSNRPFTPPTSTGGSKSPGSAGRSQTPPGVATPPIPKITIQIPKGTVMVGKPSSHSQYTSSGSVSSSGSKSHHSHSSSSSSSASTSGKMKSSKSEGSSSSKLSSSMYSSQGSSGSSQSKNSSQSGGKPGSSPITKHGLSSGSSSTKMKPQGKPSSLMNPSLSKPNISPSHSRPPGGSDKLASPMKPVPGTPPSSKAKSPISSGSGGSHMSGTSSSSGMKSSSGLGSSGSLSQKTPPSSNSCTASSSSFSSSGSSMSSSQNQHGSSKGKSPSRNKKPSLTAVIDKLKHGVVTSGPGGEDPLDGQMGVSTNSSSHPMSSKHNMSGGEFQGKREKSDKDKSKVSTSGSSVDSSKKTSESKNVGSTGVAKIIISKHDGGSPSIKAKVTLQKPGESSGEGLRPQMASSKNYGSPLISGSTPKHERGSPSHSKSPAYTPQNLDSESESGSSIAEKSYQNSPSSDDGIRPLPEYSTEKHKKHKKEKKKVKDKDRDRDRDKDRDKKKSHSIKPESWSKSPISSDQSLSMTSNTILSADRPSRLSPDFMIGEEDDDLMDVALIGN
UniProt P10275: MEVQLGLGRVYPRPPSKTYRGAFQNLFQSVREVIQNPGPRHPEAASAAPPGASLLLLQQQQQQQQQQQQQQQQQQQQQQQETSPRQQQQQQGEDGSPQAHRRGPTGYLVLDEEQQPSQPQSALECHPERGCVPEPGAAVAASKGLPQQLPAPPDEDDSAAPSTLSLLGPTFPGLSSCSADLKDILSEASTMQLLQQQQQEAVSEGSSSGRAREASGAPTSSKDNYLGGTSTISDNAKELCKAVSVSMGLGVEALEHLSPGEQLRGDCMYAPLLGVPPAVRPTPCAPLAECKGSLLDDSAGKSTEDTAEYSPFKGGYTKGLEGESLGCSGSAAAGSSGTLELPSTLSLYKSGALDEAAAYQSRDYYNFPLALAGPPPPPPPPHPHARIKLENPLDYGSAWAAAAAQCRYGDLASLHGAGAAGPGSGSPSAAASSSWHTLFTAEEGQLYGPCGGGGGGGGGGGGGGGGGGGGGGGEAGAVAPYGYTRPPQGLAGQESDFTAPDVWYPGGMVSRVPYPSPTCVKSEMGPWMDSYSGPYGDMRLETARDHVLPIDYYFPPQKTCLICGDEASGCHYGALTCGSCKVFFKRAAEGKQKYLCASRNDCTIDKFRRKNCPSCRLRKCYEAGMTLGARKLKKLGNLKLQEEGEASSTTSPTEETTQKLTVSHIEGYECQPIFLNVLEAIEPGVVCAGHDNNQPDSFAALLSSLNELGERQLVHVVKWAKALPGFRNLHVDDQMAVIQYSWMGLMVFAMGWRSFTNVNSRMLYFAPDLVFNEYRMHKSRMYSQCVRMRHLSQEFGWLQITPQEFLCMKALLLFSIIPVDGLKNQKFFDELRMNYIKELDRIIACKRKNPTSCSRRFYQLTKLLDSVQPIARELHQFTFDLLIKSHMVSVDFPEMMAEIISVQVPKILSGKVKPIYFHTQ

Results are given in words; binding and its absence hold for the method and conditions named. Binding seen in cells or lysates may run through a third protein.

This experiment has as its target phosphorylated mediator complex subunit 1 (MED1, phospho T1457), endogenous in clinical prostate specimens (human (endogenous in clinical prostate tumor specimens)) (UniProt Q15648). Nature of the experiment: condition: only in benign prostate tissues or muscles; proximity ligation; as a1 (Duolink brightfield kit, Ventana autostainer), on benign prostate tissues or muscles.

As to “androgen receptor (AR), endogenous in clinical prostate specimens (from UniProt P10275 1-920)”, the binding result is recorded as “no binding”.
